No constants are given. Whether binding was seen depends on the method and setting. Binding seen in cells or lysates may run through a third protein. Some binding calls cover weakened binding; strength is not graded here.
Target: α-actinin-2 (ACTN2) (UniProt P35609)
Assay: pull-down; GST pull-down (Figure 9D); bait, source of the proteins and conditions not told

The chains behind the UniProt entries cited, without tags or fusion partners.
UniProt P35609: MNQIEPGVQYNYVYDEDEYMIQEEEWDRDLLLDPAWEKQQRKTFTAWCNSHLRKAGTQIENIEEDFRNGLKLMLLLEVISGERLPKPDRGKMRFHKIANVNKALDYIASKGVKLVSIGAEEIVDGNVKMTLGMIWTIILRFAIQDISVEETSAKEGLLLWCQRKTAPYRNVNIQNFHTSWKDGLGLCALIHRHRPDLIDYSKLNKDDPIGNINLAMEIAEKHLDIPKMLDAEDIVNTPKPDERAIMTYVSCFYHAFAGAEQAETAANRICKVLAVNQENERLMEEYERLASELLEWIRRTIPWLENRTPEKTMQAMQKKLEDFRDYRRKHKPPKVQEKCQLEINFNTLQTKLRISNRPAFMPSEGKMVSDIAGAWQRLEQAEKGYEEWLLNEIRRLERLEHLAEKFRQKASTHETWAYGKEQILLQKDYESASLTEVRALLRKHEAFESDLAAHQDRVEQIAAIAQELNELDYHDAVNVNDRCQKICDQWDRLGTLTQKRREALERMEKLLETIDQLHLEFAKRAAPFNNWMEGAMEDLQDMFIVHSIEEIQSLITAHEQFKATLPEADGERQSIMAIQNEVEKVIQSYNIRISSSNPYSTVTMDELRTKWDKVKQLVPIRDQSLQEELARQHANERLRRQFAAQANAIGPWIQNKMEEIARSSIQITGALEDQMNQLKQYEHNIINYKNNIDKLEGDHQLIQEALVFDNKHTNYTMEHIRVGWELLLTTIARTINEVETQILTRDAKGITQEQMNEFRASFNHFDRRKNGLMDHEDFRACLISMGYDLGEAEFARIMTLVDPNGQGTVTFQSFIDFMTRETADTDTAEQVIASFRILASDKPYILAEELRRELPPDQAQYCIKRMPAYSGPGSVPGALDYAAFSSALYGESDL

B1: PDZ and LIM domain protein 1 (PDLIM1) (protein, UniProt O00151 1-329)
chain: MTTQQIDLQGPGPWGFRLVGGKDFEQPLAISRVTPGSKAALANLCIGDVITAIDGENTSNMTHLEAQNRIKGCTDNLTLTVARSEHKVWSPLVTEEGKRHPYKMNLASEPQEVLHIGSAHNRSAMPFTASPASSTTARVITNQYNNPAGLYSSENISNFNNALESKTAASGVEANSRPLDHAQPPSSLVIDKESEVYKMLQEKQELNEPPKQSTSFLVLQEILESEEKGDPNKPSGFRSVKAPVTKVAASIGNAQKLPMCDKCGTGIVGVFVKLRDRHRHPECYVCTDCGTNLKQKGHFFVEDQIYCEKHARERVTPPEGYEVVTVFPK
- binding: binds
